The list shows a part of the results.
Legend:
Test in all cases: log2 fold change, soluble protein after heating vs DMSO (PISA); higher = thermal stabilisation; K562 cells, 10 uM, 30 min; active = over 0.2 and 3.5 SD of the protein, either way, in both replicates (recomputed)
[1] = compound: CS(=O)(=O)c1ccc(-c2cnc(N)c(C(=O)Nc3ccccc3)n2)cc1
Outline: (§1)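 For each measurement, 10 μM compound was applied for 30 min to K562 cells at 2×10^6 cells/mL. Aliquots were heated for 3 min across 48°C-58°C, pooled, and extracted in PBS with 0.5% NP-40 at 4°C; the supernatant after 21,000xg for 90 min was soluble protein. This was quantified by TMTpro 16plex LC-MS/MS with channel sums equalised, and thermal stability was reported relative to control samples from duplicates, on a log2 fold-change scale.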

By UniProt entry, the sequences of proteins in these tests, tags left out. Where a name states a change or a piece, a line headed by the entry shows the natural chain unless it says otherwise.
UniProt Q99805: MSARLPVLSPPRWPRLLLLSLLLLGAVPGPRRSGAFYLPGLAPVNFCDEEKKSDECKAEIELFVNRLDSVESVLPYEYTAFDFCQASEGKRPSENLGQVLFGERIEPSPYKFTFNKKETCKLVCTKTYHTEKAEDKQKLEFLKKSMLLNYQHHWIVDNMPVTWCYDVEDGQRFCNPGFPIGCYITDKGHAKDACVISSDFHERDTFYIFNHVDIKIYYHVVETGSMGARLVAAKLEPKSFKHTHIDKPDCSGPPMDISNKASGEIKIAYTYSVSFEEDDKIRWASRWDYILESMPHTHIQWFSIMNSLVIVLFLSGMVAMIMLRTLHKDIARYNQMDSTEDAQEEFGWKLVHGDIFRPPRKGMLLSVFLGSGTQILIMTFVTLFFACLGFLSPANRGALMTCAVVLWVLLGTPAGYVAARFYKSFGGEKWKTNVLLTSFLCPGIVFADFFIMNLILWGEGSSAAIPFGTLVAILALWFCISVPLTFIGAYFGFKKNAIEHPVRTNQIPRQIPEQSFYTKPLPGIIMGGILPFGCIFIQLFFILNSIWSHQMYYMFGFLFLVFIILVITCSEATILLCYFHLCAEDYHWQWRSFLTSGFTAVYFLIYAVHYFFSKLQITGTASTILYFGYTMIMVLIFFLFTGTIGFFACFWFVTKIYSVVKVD
UniProt Q5T3F8: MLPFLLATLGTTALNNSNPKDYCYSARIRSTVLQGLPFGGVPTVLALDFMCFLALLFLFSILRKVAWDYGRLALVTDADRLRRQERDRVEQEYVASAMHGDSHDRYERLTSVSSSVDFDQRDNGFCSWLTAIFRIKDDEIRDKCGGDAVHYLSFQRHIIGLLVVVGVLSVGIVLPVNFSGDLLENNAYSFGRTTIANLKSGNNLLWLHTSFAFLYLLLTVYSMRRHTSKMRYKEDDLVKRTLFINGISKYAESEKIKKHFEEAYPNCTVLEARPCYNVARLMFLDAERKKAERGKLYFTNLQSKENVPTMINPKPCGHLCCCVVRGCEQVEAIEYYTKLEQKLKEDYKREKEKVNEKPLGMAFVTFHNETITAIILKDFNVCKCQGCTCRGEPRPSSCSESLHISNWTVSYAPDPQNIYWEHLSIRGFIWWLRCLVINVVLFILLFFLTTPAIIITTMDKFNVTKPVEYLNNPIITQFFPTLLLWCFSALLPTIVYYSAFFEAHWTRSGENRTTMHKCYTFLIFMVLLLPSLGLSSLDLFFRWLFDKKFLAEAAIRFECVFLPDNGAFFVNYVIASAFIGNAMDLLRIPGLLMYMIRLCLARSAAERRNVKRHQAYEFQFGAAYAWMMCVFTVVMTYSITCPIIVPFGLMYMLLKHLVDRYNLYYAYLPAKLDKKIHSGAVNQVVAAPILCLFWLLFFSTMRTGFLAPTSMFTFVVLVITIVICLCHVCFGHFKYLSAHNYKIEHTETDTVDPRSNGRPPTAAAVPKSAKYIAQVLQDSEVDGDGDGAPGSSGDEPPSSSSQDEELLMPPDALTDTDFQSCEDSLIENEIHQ
UniProt Q6UWJ1: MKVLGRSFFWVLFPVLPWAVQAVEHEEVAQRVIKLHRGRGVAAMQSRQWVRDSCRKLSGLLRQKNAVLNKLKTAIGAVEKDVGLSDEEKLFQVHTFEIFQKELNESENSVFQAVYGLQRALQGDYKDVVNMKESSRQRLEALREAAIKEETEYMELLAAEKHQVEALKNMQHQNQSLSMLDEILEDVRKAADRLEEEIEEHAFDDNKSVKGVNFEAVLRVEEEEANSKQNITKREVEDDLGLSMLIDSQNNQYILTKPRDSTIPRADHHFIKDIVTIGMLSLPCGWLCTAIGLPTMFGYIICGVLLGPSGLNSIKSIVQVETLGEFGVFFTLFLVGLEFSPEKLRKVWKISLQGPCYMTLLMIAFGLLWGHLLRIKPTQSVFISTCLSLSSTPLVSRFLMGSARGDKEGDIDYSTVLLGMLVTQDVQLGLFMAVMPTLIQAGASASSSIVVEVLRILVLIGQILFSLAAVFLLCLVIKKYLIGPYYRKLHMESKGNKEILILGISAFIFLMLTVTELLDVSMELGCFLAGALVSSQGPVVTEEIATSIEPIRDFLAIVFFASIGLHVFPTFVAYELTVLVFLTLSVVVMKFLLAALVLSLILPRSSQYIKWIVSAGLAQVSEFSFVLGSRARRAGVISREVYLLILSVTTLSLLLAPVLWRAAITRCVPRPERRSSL
UniProt Q9UKI8: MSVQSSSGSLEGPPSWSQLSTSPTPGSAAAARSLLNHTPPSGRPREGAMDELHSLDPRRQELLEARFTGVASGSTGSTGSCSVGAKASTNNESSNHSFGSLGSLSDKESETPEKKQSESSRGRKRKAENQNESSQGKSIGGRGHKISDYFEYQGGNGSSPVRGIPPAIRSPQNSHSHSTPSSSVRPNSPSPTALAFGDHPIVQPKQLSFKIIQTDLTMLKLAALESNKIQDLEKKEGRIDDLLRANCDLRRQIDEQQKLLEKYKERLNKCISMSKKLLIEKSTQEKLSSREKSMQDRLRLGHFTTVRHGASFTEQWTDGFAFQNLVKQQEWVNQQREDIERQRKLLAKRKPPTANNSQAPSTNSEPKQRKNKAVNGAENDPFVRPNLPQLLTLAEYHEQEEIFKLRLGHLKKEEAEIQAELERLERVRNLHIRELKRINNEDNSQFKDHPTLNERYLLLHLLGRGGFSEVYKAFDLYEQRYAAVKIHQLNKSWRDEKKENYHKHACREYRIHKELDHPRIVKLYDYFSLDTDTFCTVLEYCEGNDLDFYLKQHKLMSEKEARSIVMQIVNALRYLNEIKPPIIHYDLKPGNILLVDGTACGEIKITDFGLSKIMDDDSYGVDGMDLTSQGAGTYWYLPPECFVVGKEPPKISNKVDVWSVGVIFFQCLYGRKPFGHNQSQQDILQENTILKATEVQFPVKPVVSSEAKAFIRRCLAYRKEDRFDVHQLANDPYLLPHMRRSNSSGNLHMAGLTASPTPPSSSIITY
UniProt Q9P0S9: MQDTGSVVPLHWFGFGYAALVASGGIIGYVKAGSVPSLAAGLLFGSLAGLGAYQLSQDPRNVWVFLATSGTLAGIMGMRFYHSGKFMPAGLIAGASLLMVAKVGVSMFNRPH
UniProt P19438, whole entry, looked up: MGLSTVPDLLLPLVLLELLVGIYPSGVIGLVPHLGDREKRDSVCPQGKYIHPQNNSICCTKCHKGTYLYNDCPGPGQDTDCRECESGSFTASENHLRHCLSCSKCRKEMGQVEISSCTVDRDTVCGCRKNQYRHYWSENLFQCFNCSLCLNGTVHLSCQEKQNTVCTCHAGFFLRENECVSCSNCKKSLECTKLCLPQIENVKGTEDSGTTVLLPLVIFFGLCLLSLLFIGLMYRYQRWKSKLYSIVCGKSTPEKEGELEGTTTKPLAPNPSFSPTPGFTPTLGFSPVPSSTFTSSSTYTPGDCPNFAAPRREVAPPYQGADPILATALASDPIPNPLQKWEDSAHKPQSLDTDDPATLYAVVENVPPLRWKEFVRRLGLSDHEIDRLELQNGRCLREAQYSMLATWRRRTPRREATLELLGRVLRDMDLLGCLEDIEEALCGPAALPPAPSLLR
UniProt Q7Z7N9: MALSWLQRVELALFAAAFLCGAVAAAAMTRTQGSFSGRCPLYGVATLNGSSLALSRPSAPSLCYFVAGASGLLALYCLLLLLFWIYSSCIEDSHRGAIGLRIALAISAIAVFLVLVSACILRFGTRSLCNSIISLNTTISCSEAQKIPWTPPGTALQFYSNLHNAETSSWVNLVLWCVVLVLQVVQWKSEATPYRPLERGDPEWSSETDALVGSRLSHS
UniProt Q9NR96: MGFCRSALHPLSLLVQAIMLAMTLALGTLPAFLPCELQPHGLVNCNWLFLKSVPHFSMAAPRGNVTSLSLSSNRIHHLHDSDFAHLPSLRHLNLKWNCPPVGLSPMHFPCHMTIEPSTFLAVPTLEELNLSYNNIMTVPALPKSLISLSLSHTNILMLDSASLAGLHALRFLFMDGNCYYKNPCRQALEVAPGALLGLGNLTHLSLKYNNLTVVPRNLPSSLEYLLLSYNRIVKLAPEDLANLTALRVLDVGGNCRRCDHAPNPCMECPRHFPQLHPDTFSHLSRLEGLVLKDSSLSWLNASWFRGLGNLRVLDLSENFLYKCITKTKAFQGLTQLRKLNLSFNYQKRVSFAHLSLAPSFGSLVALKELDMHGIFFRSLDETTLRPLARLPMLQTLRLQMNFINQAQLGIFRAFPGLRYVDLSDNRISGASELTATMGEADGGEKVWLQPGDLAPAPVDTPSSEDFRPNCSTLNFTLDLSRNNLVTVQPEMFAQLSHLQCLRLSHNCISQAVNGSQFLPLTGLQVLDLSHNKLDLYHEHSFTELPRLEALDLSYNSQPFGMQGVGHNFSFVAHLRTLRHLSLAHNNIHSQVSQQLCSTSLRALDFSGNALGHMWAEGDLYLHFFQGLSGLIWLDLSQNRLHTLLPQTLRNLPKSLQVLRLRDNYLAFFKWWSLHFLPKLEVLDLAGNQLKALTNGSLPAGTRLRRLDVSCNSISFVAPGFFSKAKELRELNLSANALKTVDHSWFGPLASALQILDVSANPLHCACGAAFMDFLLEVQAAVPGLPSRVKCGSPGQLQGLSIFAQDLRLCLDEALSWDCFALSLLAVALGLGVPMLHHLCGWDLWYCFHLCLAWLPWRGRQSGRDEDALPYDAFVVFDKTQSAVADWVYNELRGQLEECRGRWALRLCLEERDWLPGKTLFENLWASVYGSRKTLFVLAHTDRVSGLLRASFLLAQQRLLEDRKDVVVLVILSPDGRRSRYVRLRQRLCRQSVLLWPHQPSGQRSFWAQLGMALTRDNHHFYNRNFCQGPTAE
UniProt Q96HV5: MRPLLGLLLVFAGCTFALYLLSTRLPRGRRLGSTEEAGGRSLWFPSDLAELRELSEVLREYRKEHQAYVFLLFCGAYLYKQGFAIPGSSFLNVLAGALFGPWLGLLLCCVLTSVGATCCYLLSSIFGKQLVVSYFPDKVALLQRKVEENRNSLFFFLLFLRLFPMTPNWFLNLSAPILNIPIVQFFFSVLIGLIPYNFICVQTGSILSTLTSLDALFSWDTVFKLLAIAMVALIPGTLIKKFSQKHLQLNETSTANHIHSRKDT
UniProt Q5SWH9: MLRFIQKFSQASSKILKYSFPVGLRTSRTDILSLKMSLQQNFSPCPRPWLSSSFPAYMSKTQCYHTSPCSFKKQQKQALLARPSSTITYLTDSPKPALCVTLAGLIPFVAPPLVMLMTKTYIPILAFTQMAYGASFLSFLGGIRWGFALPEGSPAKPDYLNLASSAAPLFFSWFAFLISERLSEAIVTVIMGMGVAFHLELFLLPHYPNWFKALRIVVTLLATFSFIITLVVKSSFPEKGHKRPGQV
UniProt Q5BJD5: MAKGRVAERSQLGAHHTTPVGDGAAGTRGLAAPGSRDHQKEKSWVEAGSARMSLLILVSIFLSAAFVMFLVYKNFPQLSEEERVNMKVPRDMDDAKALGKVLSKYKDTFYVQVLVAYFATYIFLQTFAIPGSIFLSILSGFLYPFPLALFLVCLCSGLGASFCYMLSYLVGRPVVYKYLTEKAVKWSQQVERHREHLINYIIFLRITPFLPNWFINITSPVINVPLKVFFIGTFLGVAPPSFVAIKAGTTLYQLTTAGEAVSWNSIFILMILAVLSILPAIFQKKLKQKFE
UniProt Q9BSE2: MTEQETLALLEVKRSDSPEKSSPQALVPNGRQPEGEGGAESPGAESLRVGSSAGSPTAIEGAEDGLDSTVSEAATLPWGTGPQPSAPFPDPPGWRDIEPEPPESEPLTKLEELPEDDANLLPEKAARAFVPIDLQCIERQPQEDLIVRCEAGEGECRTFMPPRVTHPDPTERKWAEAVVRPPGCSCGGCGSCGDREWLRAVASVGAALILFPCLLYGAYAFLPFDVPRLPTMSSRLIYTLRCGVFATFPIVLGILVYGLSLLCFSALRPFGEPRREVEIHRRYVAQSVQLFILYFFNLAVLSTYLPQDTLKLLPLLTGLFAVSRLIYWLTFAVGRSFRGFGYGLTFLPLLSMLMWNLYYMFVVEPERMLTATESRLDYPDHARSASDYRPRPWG
UniProt Q8NCS4: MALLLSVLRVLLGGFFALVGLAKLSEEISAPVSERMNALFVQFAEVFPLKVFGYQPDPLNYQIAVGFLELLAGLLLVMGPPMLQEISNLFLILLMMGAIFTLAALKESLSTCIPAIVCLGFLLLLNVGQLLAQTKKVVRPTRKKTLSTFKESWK
UniProt Q2T9K0: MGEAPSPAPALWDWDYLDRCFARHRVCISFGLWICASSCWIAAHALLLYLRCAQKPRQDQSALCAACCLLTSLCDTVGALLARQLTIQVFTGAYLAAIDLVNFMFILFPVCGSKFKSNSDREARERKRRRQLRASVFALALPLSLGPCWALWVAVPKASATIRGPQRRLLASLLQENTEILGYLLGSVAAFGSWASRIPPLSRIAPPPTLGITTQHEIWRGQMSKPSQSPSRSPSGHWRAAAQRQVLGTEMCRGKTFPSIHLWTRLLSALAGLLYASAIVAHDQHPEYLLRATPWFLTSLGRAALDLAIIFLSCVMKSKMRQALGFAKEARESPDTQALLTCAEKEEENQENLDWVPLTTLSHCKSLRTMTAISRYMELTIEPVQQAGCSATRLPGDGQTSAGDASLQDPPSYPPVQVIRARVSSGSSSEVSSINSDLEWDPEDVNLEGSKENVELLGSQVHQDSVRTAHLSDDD

[2] = compound: C[C@@H]1COCCN1C2=NC(=NC(=C2)C3(CC3)S(=O)(=O)C)C4=C5C=CNC5=CC=C4
Outline: as §1

[3] = compound: Cc1cc(Nc2cc(CN3CCOCC3)c3nc(C)c(Cc4ccc(Cl)cc4F)n3n2)n[nH]1 [gandotinib]
Outline: as §1

[4] = compound: Cc1cc(Nc2cc(N3CCN(C)CC3)nc(Sc3ccc(NC(=O)C4CC4)cc3)n2)n[nH]1 [tozasertib]
Outline: as §1

[5] = compound: Cc1cccc(CC(=O)N2CCc3c2ccc(-c2cn(C)c4ncnc(N)c24)c3F)n1
Outline: as §1

[6] = compound: FC(F)(F)c1ccc(/C=C/c2nc(COc3ccc(CCCCn4ccnn4)cc3)co2)cc1 [mubritinib]
Outline: as §1

[7] = compound: C[C@@H](Oc1cc(-c2cnn(C3CCNCC3)c2)cnc1N)c1c(Cl)ccc(F)c1Cl [crizotinib]
Outline: as §1

[8] = compound: C[C@H](C1=CC=C(C=C1)C(=O)NC2=C3C=CNC3=NC=C2)N
Outline: as §1

[9] = compound: Cc1cc(SCc2sc(-c3ccc(C(F)(F)F)cc3)nc2C)ccc1OCC(=O)O
Outline: as §1

[10] = compound: Cc1ccc(-n2nc(C(C)(C)C)cc2NC(=O)Nc2ccc(OCCN3CCOCC3)c3ccccc23)cc1 [doramapimod]
Outline: as §1

[11] = compound: Cc1ccc(C(=O)N(CCCN)[C@@H](c2nc3cc(Cl)ccc3c(=O)n2Cc2ccccc2)C(C)C)cc1 [ispinesib]
Outline: as §1

[12] = compound: Cc1ccc(NC(=O)c2ccc(CN3CC[C@H](N(C)C)C3)c(C(F)(F)F)c2)cc1Nc1nccc(-c2cncnc2)n1 [bafetinib]
Outline: as §1

[13] = compound: Cc1cn(-c2cc(NC(=O)c3ccc(C)c(Nc4nccc(-c5cccnc5)n4)c3)cc(C(F)(F)F)c2)cn1 [nilotinib]
Outline: as §1

[14] = compound: Cc1nc(Nc2n[nH]c3c2CN(C(=O)N[C@H](CN(C)C)c2ccccc2)C3(C)C)c2sccc2n1
Outline: as §1

[15] = compound: Cc1nc(Nc2ncc(C(=O)Nc3c(C)cccc3Cl)s2)cc(N2CCN(CCO)CC2)n1 [dasatinib]
Outline: as §1

[16] = compound: Cc1ncc(-c2ccnc(Nc3ccc(S(C)(=O)=O)cc3)n2)n1C(C)C
Outline: as §1

[17] = compound: Cn1cc(-c2ccc3c(c2)CCN3C(=O)Cc2cccc(C(F)(F)F)c2)c2c(N)ncnc21
Outline: as §1

[18] = compound: Cn1cc(-c2ccc3nnc(C(F)(F)c4ccc5ncccc5c4)n3n2)cn1
Outline: as §1

[19] = compound: Cn1cncc1[C@@](N)(c1ccc(Cl)cc1)c1ccc2c(c1)c(-c1cccc(Cl)c1)cc(=O)n2C [tipifarnib]
Outline: as §1

[20] = compound: C[C@H](Nc1ncnc2nc[nH]c12)c1cc2cccc(Cl)c2c(=O)n1-c1ccccc1 [duvelisib]
Outline: as §1

Measured: log2 fold change

TMEM237 isoform 3 (UniProt Q96Q45)
inactive: [1] -0.054 | [2] -0.627 | [3] -0.23 | [4] -0.325 | [5] -0.116 | [6] -0.08

TM9SF2 (UniProt Q99805)
active: [7] -0.754
inactive: [1] 0.056 | [2] -0.017 | [8] -0.049 | [3] 0.008 | [9] 0 | [10] 0.007 | [11] -0.089 | [12] -0.056 | [5] 0.008 | [13] 0.025 | [14] -0.072 | [15] -0.013 | [16] 0.041 | [17] 0.023 | [18] 0.036 | [19] 0.009 | [6] -0.006

TMEM63B (UniProt Q5T3F8)
active: [11] -0.312
inactive: [1] -0.127 | [7] 0.045 | [2] -0.042 | [8] -0.014 | [3] -0.028 | [9] 0.015 | [10] -0.047 | [12] 0.013 | [5] 0.002 | [13] -0.008 | [14] -0.021 | [15] 0.026 | [16] -0.061 | [17] 0.006 | [18] 0.004 | [19] 0.008 | [6] 0.047

Looked up one by one from the list above, two records:
TM9SF2 (UniProt Q99805)
active: [7] -0.754
inactive: [1] 0.056 | [2] -0.017 | [8] -0.049 | [3] 0.008 | [9] 0 | [10] 0.007 | [11] -0.089 | [12] -0.056 | [5] 0.008 | [13] 0.025 | [14] -0.072 | [15] -0.013 | [16] 0.041 | [17] 0.023 | [18] 0.036 | [19] 0.009 | [6] -0.006

TMEM63B (UniProt Q5T3F8)
active: [11] -0.312
inactive: [1] -0.127 | [7] 0.045 | [2] -0.042 | [8] -0.014 | [3] -0.028 | [9] 0.015 | [10] -0.047 | [12] 0.013 | [5] 0.002 | [13] -0.008 | [14] -0.021 | [15] 0.026 | [16] -0.061 | [17] 0.006 | [18] 0.004 | [19] 0.008 | [6] 0.047

Further results follow.

TMCO3 (UniProt Q6UWJ1)
inactive: [1] -0.086 | [2] -0.026 | [20] 0.115 | [3] -0.136 | [9] -0.048 | [11] -0.142 | [5] -0.203 | [15] 0.058 | [18] 0.037 | [6] -0.162

TLK1 (UniProt Q9UKI8)
inactive: [1] -0.058 | [7] -0.008 | [2] 0.101 | [8] -0.028 | [3] 0.145 | [9] 0.028 | [10] -0.023 | [11] 0.026 | [12] -0.071 | [5] 0 | [13] -0.073 | [15] -0.028 | [16] 0.007 | [17] 0.06 | [18] 0.026 | [19] 0.01 | [6] 0.011
active: [14] -0.399

TMEM268 isoform 3 (UniProt Q5VZI3)
inactive: [1] -0.146 | [2] -0.308 | [8] -0.078 | [3] 0.124 | [9] -0.063 | [11] -0.227 | [12] 0.318 | [5] -0.096 | [13] 0.008 | [14] -0.005 | [15] -0.194 | [16] 0.165 | [17] 0.112 | [18] 0.014 | [19] 0.003 | [6] 0.109

TMEM263 (UniProt Q8WUH6)
inactive: [1] 0.03 | [2] -0.029 | [8] 0.018 | [3] -0.385 | [9] 0.046 | [10] -0.075 | [12] -0.434 | [5] 0.037 | [13] -0.079 | [14] -0.027 | [15] -0.249 | [16] 0.124 | [17] -0.011 | [18] 0.02 | [19] -0.182 | [6] 0.054
active: [7] -0.717 | [11] -0.936

TMEM14C (UniProt Q9P0S9)
inactive: [1] -0.042 | [7] 0.079 | [8] 0.04 | [20] 0.137 | [3] 0.003 | [4] 0.048 | [9] -0.026 | [10] 0.084 | [11] -0.064 | [12] -0.118 | [5] -0.011 | [13] 0.112 | [14] -0.053 | [15] 0.008 | [16] -0.081 | [17] 0.059 | [18] -0.054 | [19] -0.02 | [6] 0.01

TNFRSF1A (UniProt P19438)
inactive: [1] 0.413 | [2] -0.148 | [8] 0.154 | [20] 0.3 | [3] 0.162 | [4] 0.012 | [9] -0.037 | [5] -0.171 | [15] -0.128 | [17] -0.144 | [19] -0.096

TM9SF4 (UniProt Q92544)
active: [5] 0.252
inactive: [1] -0.029 | [7] -0.141 | [2] 0.036 | [8] 0.04 | [3] -0.189 | [9] 0.044 | [10] 0.034 | [11] -0.143 | [12] 0.034 | [13] 0.005 | [14] 0.012 | [15] 0.127 | [16] 0.037 | [17] -0.021 | [18] 0.004 | [19] -0.061 | [6] 0.007

TMEM179B (UniProt Q7Z7N9)
inactive: [1] -0.005 | [7] -0.167 | [2] 0.101 | [8] -0.165 | [3] -0.138 | [10] 0.071 | [11] -0.099 | [12] -0.074 | [5] -0.065 | [13] 0.046 | [14] -0.018 | [16] -0.013 | [17] 0.154 | [18] 0.019 | [19] 0.167 | [6] -0.025

TLR9 isoform 4 (UniProt Q9NR96)
inactive: [1] -0.004 | [2] 0.107 | [8] -0.161 | [20] 0.184 | [4] -0.334 | [9] 0.147 | [11] 0.117 | [12] 0.014 | [13] -0.007 | [14] 0.078 | [15] -0.201 | [16] 0.051 | [17] -0.226 | [18] 0.001 | [6] 0.064

TMEM41A (UniProt Q96HV5)
inactive: [1] -0.023 | [7] 0.139 | [2] 0.137 | [3] -0.044 | [9] 0 | [10] 0.025 | [11] 0.065 | [12] -0.037 | [13] -0.008 | [14] -0.01 | [15] 0.054 | [16] -0.049 | [18] 0.082 | [19] 0.026 | [6] 0.062
active: [5] 0.276

TMEM219 (UniProt Q86XT9)
inactive: [1] 0.049 | [2] -0.036 | [8] 0.114 | [3] 0.034 | [9] -0.241 | [12] -0.211 | [5] 0.027 | [13] -0.243 | [14] 0.216 | [15] -0.11 | [16] 0.032 | [17] 0.092 | [19] 0.063

TM7SF3 (UniProt Q9NS93)
inactive: [1] -0.01 | [8] -0.216 | [9] -0.003 | [10] 0.052 | [12] -0.147 | [13] -0.004 | [14] 0.005 | [15] 0.005 | [16] -0.029 | [17] -0.034 | [18] 0.034 | [19] 0.019 | [6] 0.147
active: [7] -0.432 | [11] -0.343

TMEM69 (UniProt Q5SWH9)
inactive: [7] 0.056 | [8] -0.219 | [3] -0.09 | [4] 0.064 | [10] 0.025 | [11] 0.043 | [12] 0.009 | [5] -0.009 | [13] -0.015 | [14] 0.075 | [16] 0.007 | [17] 0.012 | [18] -0.138 | [19] -0.026 | [6] -0.197

TMEM41B (UniProt Q5BJD5)
inactive: [7] -0.012 | [2] 0.121 | [8] -0.031 | [20] -0.046 | [3] -0.051 | [4] -0.041 | [9] -0.122 | [10] 0.101 | [11] -0.268 | [12] -0.177 | [5] 0.053 | [13] 0.051 | [14] -0.008 | [15] 0.011 | [16] -0.019 | [17] 0.016 | [18] 0 | [19] 0.023 | [6] 0.032

TMEM79 (UniProt Q9BSE2)
inactive: [4] -0.193 | [12] -0.047 | [13] -0.069 | [14] -0.094 | [16] 0.065

TMEM35B (UniProt Q8NCS4)
inactive: [7] -0.182 | [20] -0.361 | [3] -0.096 | [4] -0.168 | [9] 0.169 | [10] -0.099 | [12] -0.119 | [5] 0.016 | [13] 0.115 | [14] -0.149 | [15] -0.028 | [16] 0 | [6] 0.019

TMEM44 (UniProt Q2T9K0)
inactive: [7] 0.089 | [10] 0.003 | [13] 0.046 | [14] -0.172 | [16] -0.014
